Values quoted from earlier work in patent US7179842B2, “Method of treating non-insulin dependent diabetes mellitus with phytanic acid derivatives” (priority 2000, dated 2007).

Conditions: endogenous level; cited from earlier work

| SMILES | level in normal human serum |
| --- | --- |
| C/C(=C\C(=O)O)CCC[C@H](C)CCC[C@H](C)CCCC(C)C [Phytenic-, phytenic acid] | 2 µM |
| CC(C)CCCC(C)CCCC(C)CCCC(C)CC(=O)O (centres unmarked) [phytanic acid] | 6 µM |
